# Data: patent US12577239B2, “Sulfilimines or sulfoximines containing fungicidal heterocyclic compounds” (PI INDUSTRIES LTD., priority 2019, dated 2026)
# Some entries share one result that the patent states for a list of compounds. At least one compound was matched to its structure with a doubt left.
# Tested on: Phytophthora infestans
# Format: cell-based
# Conditions: 30 ppm; Rye Agar, radial growth after seven days at 18° C., 95% relative humidity
row,Compound,control compared to the untreated check
1,CC(C)S(=O)(=Nc1cccc(Cl)c1C1CC(c2csc(C3CCN(C(=O)Cn4nc(C(F)(F)F)cc4C4CC4)CC3)n2)=NO1)C(C)C (stereo not shown) [Compound 226],≥ 70%
2,CC(C)S(=O)(=Nc1cccc(F)c1C1CC(c2csc(C3CCN(C(=O)Cn4nc(C(F)(F)F)cc4C(F)(F)F)CC3)n2)=NO1)c1ccccc1 (stereo not shown) [Compound 234],≥ 70%
3,CC(C)/S(=N/C#N)c1cccc(Cl)c1C1CC(c2csc(C3CCN(C(=O)Cn4nc(C(F)F)cc4C(F)F)CC3)n2)=NO1 (stereo not shown) [Compound 80],≥ 70%
4,Cc1cc(C(F)(F)F)nn1CC(=O)N1CCC(c2nc(C3=NOC(c4cccc5c4N=S(C)(=O)C5)C3)cs2)CC1 (stereo not shown) [Compound 48],≥ 70%
5,CCS(=O)(=Nc1cccc(F)c1C1CC(c2csc(C3CCN(C(=O)Cn4nc(C(F)F)cc4C(F)F)CC3)n2)=NO1)C(C)C (stereo not shown) [Compound 183],≥ 70%
6,Cc1cc(C(F)(F)F)nn1CC(=O)N1CCC(c2nc(C3=NOC(c4cccc(N=S(C)(C)=O)c4)C3)cs2)CC1 (stereo not shown) [Compound 17],≥ 70%
7,CC(C)S(=O)(=Nc1cccc(F)c1C1CC(c2csc(C3CCN(C(=O)COc4nccnc4C(F)(F)F)CC3)n2)=NO1)C(C)C (stereo not shown) [Compound 212],≥ 70%
8,CCCS(=O)(=Nc1cccc(F)c1C1CC(c2csc(C3CCN(C(=O)Cn4cccc(C(F)(F)F)c4=O)CC3)n2)=NO1)C(C)C (stereo not shown) [Compound 202],≥ 70%
9,CS(=N)(=O)c1cccc(Cl)c1C1CC(c2csc(C3CCN(C(=O)COc4ncccc4C(F)(F)F)CC3)n2)=NO1 (stereo not shown) [Compound 173],≥ 70%
10,CS(=N)(=O)c1cccc(Cl)c1C1CC(c2csc(C3CCN(C(=O)Cn4nc(C(F)(F)F)cc4C(F)(F)F)CC3)n2)=NO1 (stereo not shown) [Compound 171],≥ 70%
11,Cc1cc(C(F)(F)F)nn1CC(=O)N1CCC(c2nc(C3=NOC(c4c(C(F)F)cccc4S(=N)(=O)C(C)C)C3)cs2)CC1 (stereo not shown) [Compound 188],≥ 70%
12,CCS(=O)(=Nc1cccc(Cl)c1C1CC(c2csc(C3CCN(C(=O)COc4ncccc4OC)CC3)n2)=NO1)C(C)C (stereo not shown) [Compound 243],≥ 70%
13,CS1(=O)=Nc2c(cccc2[C@H]2CC(c3csc(C4CCN(C(=O)Cn5nc(C(F)F)cc5C(F)F)CC4)n3)=NO2)C1 (stereo partly shown) [Compound 35],≥ 70%
14,CSc1nccnc1OCC(=O)N1CCC(c2nc(C3=NOC(c4c(F)cccc4N=S(C)(C)=O)C3)cs2)CC1 (stereo not shown) [Compound 215],≥ 70%
15,CCS(C)(=O)=Nc1cccc(Cl)c1C1CC(c2csc(C3CCN(C(=O)COc4ncccc4OC)CC3)n2)=NO1 (stereo not shown) [Compound 98],≥ 70%
16,CCS(=O)(=Nc1cccc(Cl)c1C1CC(c2csc(C3CCN(C(=O)COc4ncccc4C(F)(F)F)CC3)n2)=NO1)C(C)C (stereo not shown) [Compound 242],≥ 70%
17,CCS(C)(=O)=Nc1cccc(Cl)c1C1CC(c2csc(C3CCN(C(=O)Cn4nc(C)cc4C)CC3)n2)=NO1 (stereo not shown) [Compound 97],≥ 70%
18,CN=S(C)(=O)c1cccc(C(F)F)c1C1CC(c2csc(C3CCN(C(=O)Cn4cc(C(F)(F)F)cc(Cl)c4=O)CC3)n2)=NO1 (stereo not shown) [Compound 146],≥ 70%
19,Cc1ccc(C(F)(F)F)c(=O)n1CC(=O)N1CCC(c2nc(C3=NOC(c4c(Cl)cccc4N=S(C)(C)=O)C3)cs2)CC1 (stereo not shown) [Compound 87],≥ 70%
20,CCS(C)(=O)=Nc1cccc(F)c1C1CC(c2csc(C3CCN(C(=O)Cn4nc(C(F)F)cc4C(F)F)CC3)n2)=NO1 (stereo not shown) [Compound 91],≥ 70%

row,Compound,control compared to the untreated check
1,Cc1ccc(C(F)(F)F)c(=O)n1CC(=O)N1CCC(c2nc(C3=NO[C@H](c4cc(Cl)cc5c4N=S(C)(=O)C5)C3)cs2)CC1 (stereo partly shown) [Compound 58],≥ 70%
2,Cc1cnn(CC(=O)N2CCC(c3nc(C4=NOC(c5c(Cl)cccc5S(C)(=N)=O)C4)cs3)CC2)c1 (stereo not shown) [Compound 30],≥ 70%
3,CC(C)S(=O)(=Nc1cccc(F)c1C1CC(c2csc(C3CCN(C(=O)COc4ncccc4C(F)(F)F)CC3)n2)=NO1)C(C)C (stereo not shown) [Compound 209],≥ 70%
4,Cc1cnn(CC(=O)N2CCC(c3nc(C4=NOC(c5c(Cl)cccc5S(=N)(=O)C(C)C)C4)cs3)CC2)c1 (stereo not shown) [Compound 63],≥ 70%
5,CC(C)S(=O)(=Nc1cccc(F)c1C1CC(c2csc(C3CCN(C(=O)Cn4cccc(C(F)(F)F)c4=O)CC3)n2)=NO1)c1ccccc1 (stereo not shown) [Compound 222],≥ 70%
6,O=C(COc1nccnc1C(F)(F)F)N1CCC(c2nc(C3=NOC(c4c(F)cccc4N=S4(=O)CCC4)C3)cs2)CC1 (stereo not shown) [Compound 203],≥ 70%
7,Cc1cc(C(F)(F)F)nn1CC(=O)N1CCC(c2nc(C3=NOC(c4cccc(N=S5(=O)CCCC5)c4)C3)cs2)CC1 (stereo not shown) [Compound 23],≥ 70%
8,CC(C)S(=N)(=O)c1cccc(C(F)F)c1C1CC(c2csc(C3CCN(C(=O)Cn4nc(C(F)F)cc4C(F)F)CC3)n2)=NO1 (stereo not shown) [Compound 190],≥ 70%
9,CCS(C)(=O)=Nc1cccc(F)c1C1CC(c2csc(C3CCN(C(=O)Cn4nc(C(F)(F)F)cc4C)CC3)n2)=NO1 (stereo not shown) [Compound 89],≥ 70%
10,CC(C)S(=N)(=O)c1cccc(Cl)c1C1CC(c2csc(C3CCN(C(=O)Cn4cc(Cl)cn4)CC3)n2)=NO1 (stereo not shown) [Compound 62],≥ 70%
11,COc1cccnc1OCC(=O)N1CCC(c2nc(C3=NOC(c4c(C(F)F)cccc4S(=N)(=O)C(C)C)C3)cs2)CC1 (stereo not shown) [Compound 187],≥ 70%
12,CCS(=O)(=Nc1cccc(Cl)c1C1CC(c2csc(C3CCN(C(=O)Cn4nc(C(F)(F)F)cc4C)CC3)n2)=NO1)C(C)C (stereo not shown) [Compound 239],≥ 70%
13,Cc1cc(C)n(CC(=O)N2CCC(c3nc(C4=NOC(c5c(Cl)cccc5S(C)(=N)=O)C4)cs3)CC2)n1 (stereo not shown) [Compound 166],≥ 70%
14,CC(C)S(=O)(=Nc1cccc(F)c1C1CC(c2csc(C3CCN(C(=O)Cn4nc(C(F)F)cc4C(F)F)CC3)n2)=NO1)c1ccccc1 (stereo not shown) [Compound 221],≥ 70%
15,Cc1cc(C(F)(F)F)nn1CC(=O)N1CCC(c2nc(C3=NOC(c4c(F)cccc4N=S4(=O)CCCC4)C3)cs2)CC1 (stereo not shown) [Compound 27],≥ 70%
16,CC(C)S(=O)(=Nc1cccc(F)c1C1CC(c2csc(C3CCN(C(=O)Cn4cc(C(F)(F)F)ccc4=O)CC3)n2)=NO1)c1ccccc1 (stereo not shown) [Compound 220],≥ 70%
17,CCCS(=O)(=Nc1cccc(F)c1C1CC(c2csc(C3CCN(C(=O)COc4nccnc4C(F)(F)F)CC3)n2)=NO1)C(C)C (stereo not shown) [Compound 201],≥ 70%
18,CS(C)(=O)=Nc1cccc(F)c1C1CC(c2nc(C3CCN(C(=O)Cn4nc(C(F)(F)F)cc4C(F)(F)F)CC3)cs2)=NO1 (stereo not shown) [Compound 178],≥ 70%
19,Cc1cnn(CC(=O)N2CCC(c3nc(C4=NOC(c5c(F)cccc5N=S(C)(C)=O)C4)cs3)CC2)c1 (stereo not shown) [Compound 8],≥ 70%
20,CC(C)S(=N)(=O)c1cccc(C(F)F)c1C1CC(c2csc(C3CCN(C(=O)COc4ncccc4C(F)(F)F)CC3)n2)=NO1 (stereo not shown) [Compound 189],≥ 70%
